{
  "source": "the supplement of paper PMC4604168 (melanoma cell lines)",
  "note": "The other results are listed elsewhere or left out. Repeats are few or missing, and single values can be far off.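 Imaging used 1,536-well plates; nuclei positive for cleaved PARP by antibody were divided by total DNA-stained nuclei to yield the apoptosis fraction. Doses for screening kept most cells viable, and cell lines differ markedly in resting and induced cleaved-PARP levels.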",
  "data": [
    {"tested_on": "A2058", "assay": "cleaved PARP positive nuclei fraction relative to DMSO control; melanoma cells; higher = more apoptosis", "details": "library dose: low library concentration; 72 h", "units": {"cleaved PARP positive nuclei fraction": "%"}, "values": [
      {"smiles": "Cn1cc(C2=C(c3cn(C4CCN(Cc5ccccn5)CC4)c4ccccc34)C(=O)NC2=O)c2ccccc21", "note": "[Enzastaurin] + O=C(O)[C@@H]1[O][Sb](=[O])([O][Sb]2(=[O])[O][C@H]([C@H](O)CO)[C@H](O)[C@H](C(=O)O)[O]2)[O][C@H]([C@H](O)CO)[C@@H]1O [stibogluconate] (first compound 0.8 µM, partner dose 2 µM)", "cleaved PARP positive nuclei fraction": 106},
      {"smiles": "C[C@]12O[C@H](C[C@]1(O)CO)n1c3ccccc3c3c4c(c5c6ccccc6n2c5c31)CNC4=O", "note": "[Lestaurtinib] + CNC(=O)c1cc(Oc2ccc(NC(=O)Nc3ccc(Cl)c(C(F)(F)F)c3)cc2)ccn1 [sorafenib] (first compound 0.004 µM, partner dose 0.4 µM)", "cleaved PARP positive nuclei fraction": 123},
      {"smiles": "CC1(C)CCC(c2ccc(Cl)cc2)=C(CN2CCN(c3ccc(C(=O)NS(=O)(=O)c4ccc(N[C@H](CCN5CCOCC5)CSc5ccccc5)c(S(=O)(=O)C(F)(F)F)c4)cc3)CC2)C1", "note": "+ Cn1cc(C2=C(c3cn(C4CCN(Cc5ccccn5)CC4)c4ccccc34)C(=O)NC2=O)c2ccccc21 [Enzastaurin] (first compound 0.4 µM, partner dose 0.8 µM)", "cleaved PARP positive nuclei fraction": 207},
      {"smiles": "Cn1cc(C2=C(c3cn(C4CCN(Cc5ccccn5)CC4)c4ccccc34)C(=O)NC2=O)c2ccccc21", "note": "[Enzastaurin] + O=C(O)c1ccc2c(c1)nc(Nc1cccc(Cl)c1)c1ccncc12 [CX4945] (first compound 0.8 µM, partner dose 0.4 µM)", "cleaved PARP positive nuclei fraction": 49.8},
      {"smiles": "N.N.[Cl][Pt][Cl]", "note": "[cisplatin] + CNC(=O)c1cc(Oc2ccc(NC(=O)Nc3ccc(Cl)c(C(F)(F)F)c3)cc2)ccn1 [sorafenib] (first compound 1.6 µM, partner dose 0.4 µM)", "cleaved PARP positive nuclei fraction": 94.7},
      {"smiles": "N.N.[Cl][Pt][Cl]", "note": "[cisplatin] + CS(=O)(=O)CCNCc1ccc(-c2ccc3ncnc(Nc4ccc(OCc5cccc(F)c5)c(Cl)c4)c3c2)o1 [lapatinib] (first compound 1.6 µM, partner dose 0.8 µM)", "cleaved PARP positive nuclei fraction": 91.4},
      {"smiles": "C[C@]12O[C@H](C[C@]1(O)CO)n1c3ccccc3c3c4c(c5c6ccccc6n2c5c31)CNC4=O", "note": "[Lestaurtinib] + Cc1cc(Nc2cc(N3CCN(C)CC3)nc(/C=C/c3ccccc3)n2)n[nH]1 [ENMD2076] (first compound 0.004 µM, partner dose 0.04 µM)", "cleaved PARP positive nuclei fraction": 85},
      {"smiles": "C[As](C)SC[C@H](NC(=O)CC[C@H](N)C(=O)O)C(=O)NCC(=O)O", "note": "[Darinaparsin] + Cn1nnc2c(C(N)=O)ncn2c1=O [temozolomide] (first compound 0.4 µM, partner dose 2 µM)", "cleaved PARP positive nuclei fraction": 195},
      {"smiles": "CCCCCCCCCCCCCCCCCCOP(=O)([O-])OC1CC[N+](C)(C)CC1", "note": "[Perifosine] + Cn1cc(C2=C(c3cn(C4CCN(Cc5ccccn5)CC4)c4ccccc34)C(=O)NC2=O)c2ccccc21 [Enzastaurin] (first compound 0.4 µM, partner dose 0.8 µM)", "cleaved PARP positive nuclei fraction": 25.1},
      {"smiles": "C=CCNC1=C2C[C@@H](C)C[C@H](OC)[C@H](O)[C@@H](C)/C=C(\\C)[C@H](OC(N)=O)[C@@H](OC)/C=C\\C=C(/C)C(=O)NC(=CC1=O)C2=O", "note": "[Tanespimycin] + C[As](C)SC[C@H](NC(=O)CC[C@H](N)C(=O)O)C(=O)NCC(=O)O [Darinaparsin] (first compound 0.002 µM, partner dose 0.4 µM)", "cleaved PARP positive nuclei fraction": 165},
      {"smiles": "Cn1sc(=O)n(Cc2ccccc2)c1=O", "note": "+ C[As](C)SC[C@H](NC(=O)CC[C@H](N)C(=O)O)C(=O)NCC(=O)O [Darinaparsin] (first compound 0.4 µM, partner dose 0.4 µM)", "cleaved PARP positive nuclei fraction": 110},
      {"smiles": "CC1(C)CCC(c2ccc(Cl)cc2)=C(CN2CCN(c3ccc(C(=O)NS(=O)(=O)c4ccc(N[C@H](CCN5CCOCC5)CSc5ccccc5)c(S(=O)(=O)C(F)(F)F)c4)cc3)CC2)C1", "note": "+ C[As](C)SC[C@H](NC(=O)CC[C@H](N)C(=O)O)C(=O)NCC(=O)O [Darinaparsin] (first compound 0.4 µM, partner dose 0.4 µM)", "cleaved PARP positive nuclei fraction": 150},
      {"smiles": "Cc1cc(Nc2cc(N3CCN(C)CC3)nc(Sc3ccc(NC(=O)C4CC4)cc3)n2)n[nH]1", "note": "[Tozasertib] + C[As](C)SC[C@H](NC(=O)CC[C@H](N)C(=O)O)C(=O)NCC(=O)O [Darinaparsin] (first compound 0.006 µM, partner dose 0.4 µM)", "cleaved PARP positive nuclei fraction": 108}
    ]}
  ]
}
